Source: PubChem BioAssay AID2685 (National Center for Advancing Translational Sciences (NCATS), 2010)
This is one part of the list. Further columns of the screen follow, without active or inactive calls. Compounds called inactive in the main read-out are mostly missing here. Words in brackets tell the shape of the fitted curve; partial curves, single points and poor fits give uncertain potencies.

Experiment: qHTS Assay for Lipid Storage Modulators in Drosophila S3 Cells;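 on cell number change: cells counted by Cell Tracker Red CMTPX staining in the red channel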
Settings: BODIPY lipid droplet fluorescence, 18-24 h; for cell number change: measured here: cell count max response, cells fed with added oleic acid
Outline: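 Drosophila S3 cells got compounds at several concentrations plus oleic acid (400 uM solution). Laser-scanning cytometry with 488 nm excitation read lipid droplets at 500-530 nm and cells at 575-640 nm. Percent activity was relative to 20 uM Triacsin C.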

[1] = measured here: lipid fluorescence (Fed channel) AC50, cells fed with added oleic acid
[2] = measured here: cell number channel AC50, cells fed with added oleic acid

## CCO[C@H]1OC(C(=O)Nc2ccccc2)=C[C@@H](c2coc3ccccc3c2=O)[C@@H]1CCCO
  cell number change: 2.08%
[1]
  AC50: 0.0058 µM [falling, full curve, poor fit]

## CCOCCCNC(=O)CSc1nc2nc(C)c(Cc3ccccc3)c(C)n2n1
  cell number change: 13.3%

## O=C(Cc1ccc(F)cc1)N1CCN=C1SCc1cccc([N+](=O)[O-])c1
  cell number change: 28.2%

## Cc1cc(C(=O)NC(C)CCC(C)C)c2ccccc2n1 (stereo unspecified)
  cell number change: 7.01%

## N=c1ccn(Cc2ccc(Cl)cc2)cc1
  cell number change: -36.8%
[2]
  AC50: 18.4 µM [falling, partial curve]
[1]
  AC50: 3.26 µM [falling, full curve]

## COC(=O)c1ccc(CSc2nc3ccc(S(N)(=O)=O)cc3[nH]2)cc1
  cell number change: 9.83%
[1]
  AC50: 0.517 µM [rising, full curve]

## CC(=O)Nc1ccc(S(=O)(=O)N(C)S(=O)(=O)c2ccc(F)cc2)cc1
  cell number change: -0.52%
[1]
  AC50: 0.103 µM [rising, full curve, poor fit]

## CN1CCN(C2=C(Cl)C(=O)N(c3ccc(Cl)c(Cl)c3)C2=O)CC1
  cell number change: 0.557%
[2]
  AC50: 0.13 µM [falling, full curve, poor fit]
[1]
  AC50: 6.51 µM [falling, single point]

## CCOC(=O)c1ccccc1NC(=O)COC(=O)CN1C(=O)C2CC=CCC2C1=O (stereo unspecified)
  cell number change: -47%
[2]
  AC50: 32.6 µM [falling, single point]
[1]
  AC50: 0.58 µM [falling, single point]

## COC(=O)Cc1c(C)nc2nc(-c3ccc(C)cc3)[nH]n2c1=O
  cell number change: -1.35%
[1]
  AC50: 6.51 µM [falling, partial curve]

## O=C(Nc1ccccc1C(=O)OCC(=O)N1CCc2ccccc2C1)c1ccco1
  cell number change: -7.1%
[1]
  AC50: 0.00461 µM [falling, full curve, poor fit]

## Clc1ccc(-c2nc3cnccn3c2NC2CCCC2)cc1
  cell number change: -34.3%
[2]
  AC50: 32.6 µM [falling, single point]
[1]
  AC50: 29.1 µM [falling, single point]

## Cc1ccc(CNC(=O)c2ccc(Cl)c(S(=O)(=O)N3CCCCC3)c2)cc1
  cell number change: 20.1%
[2]
  AC50: 0.103 µM [falling, full curve, poor fit]

## CCOC(=O)c1c(NC(=O)CSc2nncn2C)sc(C)c1C
[2]
  AC50: 2.91 µM [rising, partial curve]
[1]
  AC50: 2.91 µM [rising, partial curve]

## COc1ccc(NC(=S)N(CCc2c(C)[nH]c3ccc(C)cc23)Cc2cccs2)cc1
  cell number change: -0.808%

## O=C(Nc1cccc2ncccc12)c1ccc(Cl)cc1
  cell number change: 4.99%
[2]
  AC50: 6.51 µM [falling, single point]
[1]
  AC50: 14.6 µM [falling, partial curve]

## COc1ccc(-c2cc(C(=O)N(C)CC(=O)Nc3cccc(F)c3)c3ccccc3n2)cc1
  cell number change: 49%
[2]
  AC50: 6.51 µM [rising, partial curve]

## COc1cc(C=O)cc(Cl)c1OC(=O)N1CCOCC1
  cell number change: -4.26%
[2]
  AC50: 6.51 µM [rising, partial curve, poor fit]

## O=C(CSc1nnc(Cn2cnc3ccccc32)o1)Nc1cccc2ccccc12
[1]
  AC50: 23.1 µM [falling, single point]

## COc1ccc2c3c(c(=O)oc2c1)C1O[C@](CCCCN2C(=O)c4ccccc4C2=O)(Cc2cc(OC)c(OC)cc21)O3
  cell number change: -20.2%

## CSc1ccccc1NC(=O)CN(C)C(=O)/C=C/c1ccccc1
  cell number change: 0.519%
[1]
  AC50: 0.116 µM [falling, full curve, poor fit]

## O=C(Cn1nnc(-c2ccccc2F)n1)Nc1cccc2ncccc12
[2]
  AC50: 4.61 µM [rising, partial curve]

## CCn1c(CCCNC(=O)c2ccc(F)cc2)nc2ccccc21
  cell number change: 16.8%
[1]
  AC50: 6.51 µM [rising, single point]

## O=C(C1=C(O)C(=O)N(CCc2ccccc2)C1c1ccncc1)c1cc2ccccc2o1 (stereo unspecified)
  cell number change: -11%
[1]
  AC50: 0.0291 µM [rising, full curve, poor fit]

## Cc1ccc(C)c(OCc2cc(C(=O)N3CCN(c4ccccc4)CC3)no2)c1
  cell number change: 1.39%
[1]
  AC50: 0.731 µM [falling, full curve, poor fit]

## COc1ccc(S(=O)(=O)Cc2ccc(C(=O)NC3CCC(C)CC3)o2)cc1 (stereo unspecified)
  cell number change: 21.8%
[1]
  AC50: 29.1 µM [rising, partial curve, poor fit]

## CCOC(=O)C1CCCN(CC(O)COC(c2ccccc2)c2ccccc2)C1 (stereo unspecified)
  cell number change: 12.6%
[1]
  AC50: 2.91 µM [rising, single point]

## S=C(NCCC1=CCCCC1)Nc1ccccc1
  cell number change: -21.6%
[1]
  AC50: 32.6 µM [falling, single point]

## CCCN(CC1CC1)C(=O)COC(=O)c1ccc2c(c1)C(=O)N(c1ccc(OCC)cc1)C2=O
  cell number change: -27.6%
[2]
  AC50: 0.00461 µM [rising, full curve, poor fit]

## O=C(CNC(=O)c1ccc(Cl)cc1Cl)OCCCn1c(=O)[nH]c2ccccc21
[1]
  AC50: 29.1 µM [falling, single point]

## O=C(CN1CCN(Cc2ccccc2)CC1)c1c[nH]c2ccccc12
  cell number change: 11%

## COc1cc(/C=C2/C(=N)N3N=C(CC(=O)N4CCOCC4)SC3=NC2=O)ccc1OCc1ccc(F)cc1
  cell number change: -3.54%
[1]
  AC50: 29.1 µM [rising, single point]

## COc1ccc(C2=NOC(COc3ccc4c(C)cc(=O)oc4c3)C2)c(OC)c1 (stereo unspecified)
  cell number change: 8.87%
[1]
  AC50: 7.31 µM [rising, partial curve]

## CC(CCc1ccccc1)NC(=O)CN1C(=O)NC2(CCCCC2)C1=O (stereo unspecified)
  cell number change: -12%
[1]
  AC50: 18.4 µM [falling, single point]

## CC1CCN(CCOc2ccccc2-c2ccccc2)CC1
  cell number change: -18.5%
[1]
  AC50: 0.00461 µM [falling, full curve, poor fit]

## COC(=O)CSc1ccc2c(N)c(C(=O)OC)sc2c1
  cell number change: 11.9%
[1]
  AC50: 8.2 µM [rising, partial curve, poor fit]

## COc1ccccc1NC(=O)C1C2C=CC(C2)C1C(=O)NCc1cccnc1 (stereo unspecified)
  cell number change: 8.47%
[1]
  AC50: 29.1 µM [falling, single point]

## Cn1c(=O)[nH]c(=O)c2c1nc(N1CCOCC1)n2CCSc1nnnn1-c1ccccc1
  cell number change: 20.5%
[1]
  AC50: 2.06 µM [rising, full curve]

## CC(C)c1ccc(-c2c(C#N)c(N)nc3c2CCCCC3)cc1
  cell number change: -45%
[2]
  AC50: 29.1 µM [falling, single point]

## CC(OC(=O)Cc1n[nH]c(=O)c2ccccc12)C(=O)Nc1ccc(Cl)cn1 (stereo unspecified)
  cell number change: -53%
[2]
  AC50: 7.31 µM [falling, partial curve, poor fit]
[1]
  AC50: 29.1 µM [falling, single point]

## Cc1cc(C)c2nc(NC(=O)c3cc(C)on3)sc2c1
  cell number change: 2.06%

## CN(/N=C/c1cccc(Br)c1)C1=NS(=O)(=O)c2ccccc21
  cell number change: 11.8%
[1]
  AC50: 1.03 µM [falling, partial curve]

## CCOC(=O)c1c(C)[nH]c(C)c1S(=O)(=O)NC(CC)CN1CCOCC1 (stereo unspecified)
[1]
  AC50: 1.3 µM [rising, partial curve, poor fit]

## Cc1cccc(-n2cnc(C(=O)N/N=C\c3ccc(Br)cc3)c2)n1
  cell number change: 68%
[2]
  AC50: 1.3 µM [rising, full curve]
[1]
  AC50: 2.59 µM [rising, partial curve]

## CCc1ccc(NC(=O)C(CC)Sc2nc3cc4c(cc3c(=O)n2Cc2ccco2)OCO4)cc1 (stereo unspecified)
  cell number change: 114%
[2]
  AC50: 3.66 µM [rising, full curve, poor fit]
[1]
  AC50: 5.8 µM [rising, full curve]

## COc1cn(-c2ccccc2)nc1C(=O)Nc1ccccc1
[1]
  AC50: 0.82 µM [falling, full curve]

## CC(C)Cc1ccc(CN2CCCC(NC(=O)c3ccnn3C)C2)cc1 (stereo unspecified)
  cell number change: -23.8%
[1]
  AC50: 25.9 µM [falling, partial curve, poor fit]

## COc1cccc(NC(=O)N(Cc2cc3cc(C)cc(C)c3[nH]c2=O)CC2COCCO2)c1 (stereo unspecified)
  cell number change: -14.3%

## Cc1cc2nc(-c3ccc(SCc4ccc(C(=O)O)cc4)nc3)[nH]c2cc1C
  cell number change: -40.8%
[2]
  AC50: 23.1 µM [falling, single point]
[1]
  AC50: 29.1 µM [falling, single point]

## Cc1ccc2cccc(Oc3ncnc4sc(C)c(C)c34)c2n1
  cell number change: -5.4%

## COc1ccc(/C=C/C(=O)O)cc1S(=O)(=O)N1CCCC1
  cell number change: -10.2%

## Cc1ccc2nc(/N=C(\N)NC(=O)NC3CCCCC3)nc(C)c2c1
  cell number change: -48%
[2]
  AC50: 29.1 µM [falling, single point]

## N=c1c(S(=O)(=O)c2ccc(Cl)cc2)cc2c(=O)n3ccccc3nc2n1C1CCCC1
[1]
  AC50: 14.6 µM [falling, partial curve]

## Cc1ccc(-c2cc(-c3cccs3)[nH]n2)c(O)c1
[1]
  AC50: 29.1 µM [falling, single point]

## Cc1c(C(=O)OCC(C)C)[nH]c2c1C(=O)CC(c1cccs1)C2 (stereo unspecified)
  cell number change: -6.83%

## CC1=C(C(=O)N2CCOCC2)C(c2cc(C)cs2)NC(=O)N1 (stereo unspecified)
  cell number change: -203%
[2]
  AC50: 0.103 µM [falling, full curve, poor fit]
[1]
  AC50: 25.9 µM [falling, single point]

## CC1=C(C(=O)Nc2cccc(C(=O)NC3CCCC(C)C3C)c2)SCCO1 (stereo unspecified)
  cell number change: -4.13%
[1]
  AC50: 0.58 µM [rising, single point]

## O=C(CCCOc1ccc(Cl)cc1Cl)N/N=C/c1ccccc1
  cell number change: -65%
[2]
  AC50: 9.2 µM [falling, partial curve]
[1]
  AC50: 5.8 µM [falling, partial curve, poor fit]

## CC(=O)Nc1nc2c(ccc3ccccc32)s1
  cell number change: 3.98%
[1]
  AC50: 4.11 µM [falling, single point]
